Assay results from publication PMC10960409.
No constants are given. Whether binding was seen depends on the method and setting. Binding calls can cover weak binding; strength is not graded here. Where a sequence is shown, tags or fusion partners need not be part of it. For part of these data: In cells and extracts the contact can be indirect. Values belong to the binder of their own block, whether it stands above or below them.

Legend:
[1] = target: OsMYB30 (yeast two-hybrid bait fusion) (rice); assay: two-hybrid; OsPCF5 in prey vector pGAD-T7, MYB in bait vector pGBK-T7, yeast AH109; growth on SD-Leu-Trp-His-Ade with 5 mM 3-AT
[2] = target: OsMYB22 (yeast two-hybrid bait fusion) (rice); assay: two-hybrid; OsPCF5 in prey vector pGAD-T7, MYB in bait vector pGBK-T7, yeast AH109; growth on SD-Leu-Trp-His-Ade
nYFP-OsMYB30 (rice) = assay: split reporter; BiFC, nYFP-OsMYBs and OsPCF5-cYFP co-infiltrated into N. benthamiana leaves, confocal microscopy after 48 h
nYFP-OsMYB22 (rice) = assay: as above
[3] = target: OsMYB22 (luciferase complementation fusion) (rice); assay: split reporter; luciferase complementation assay (LCA), NLuc and CLuc fusions co-infiltrated into N. benthamiana leaves, signal read 48 h after infiltration
[4] = target: OsMYB30 (luciferase complementation fusion) (rice); assay: as above

binding [1]: binds
binding [2]: binds
B1: OsPCF5 (yeast two-hybrid prey fusion) (protein, UniProt Q8LT07 1-458)
chain: MGDAGGHSHHHQHGFQPQLLSFGGVGHHHHLHQFTAQPQPPAASHTRGRGGGGEIVPATTTPRSRGGGGGGGGEIVAVQGGHIVRSTGRKDRHSKVCTARGPRDRRVRLSAHTAIQFYDVQDRLGYDRPSKAVDWLIKNAKDAIDKLDVLPAWQPTAGGAGAGNAAAPPSSSTHPDSAENSDDQAQAITVAHTAFDFAGGGSGGTSFLPPSLDSDAIADTIKSFFPMGGTAGGEASSSTTAAQSSAMGFQSYTPDLLSRTGSQSQELRLSLQSLPDPMFHHQQHRHGGGGGGGNGTTQQALFSGAANYSFGGGAMWATEQQAQNQRMLPWNVPDPGGGGGAAYLFNVSQQAAHMQAAAAALGGHQSQFFFQRGPLQSSNQPSERGWPETVEADNQMSHHQGGLSPSVSAAIGFAAPGIGFSGFRLPARIQGDEEHNGGGGGNGDKPPPPSSVSSASHH

binding (nYFP-OsMYB30 (rice)): binds
binding (nYFP-OsMYB22 (rice)): binds
B2: OsPCF5-cYFP (protein, UniProt Q8LT07 1-458)
chain: MGDAGGHSHHHQHGFQPQLLSFGGVGHHHHLHQFTAQPQPPAASHTRGRGGGGEIVPATTTPRSRGGGGGGGGEIVAVQGGHIVRSTGRKDRHSKVCTARGPRDRRVRLSAHTAIQFYDVQDRLGYDRPSKAVDWLIKNAKDAIDKLDVLPAWQPTAGGAGAGNAAAPPSSSTHPDSAENSDDQAQAITVAHTAFDFAGGGSGGTSFLPPSLDSDAIADTIKSFFPMGGTAGGEASSSTTAAQSSAMGFQSYTPDLLSRTGSQSQELRLSLQSLPDPMFHHQQHRHGGGGGGGNGTTQQALFSGAANYSFGGGAMWATEQQAQNQRMLPWNVPDPGGGGGAAYLFNVSQQAAHMQAAAAALGGHQSQFFFQRGPLQSSNQPSERGWPETVEADNQMSHHQGGLSPSVSAAIGFAAPGIGFSGFRLPARIQGDEEHNGGGGGNGDKPPPPSSVSSASHH

binding [3]: binds
binding [4]: binds
B3: OsPCF5 (luciferase complementation fusion) (protein, UniProt Q8LT07 1-458)
chain: MGDAGGHSHHHQHGFQPQLLSFGGVGHHHHLHQFTAQPQPPAASHTRGRGGGGEIVPATTTPRSRGGGGGGGGEIVAVQGGHIVRSTGRKDRHSKVCTARGPRDRRVRLSAHTAIQFYDVQDRLGYDRPSKAVDWLIKNAKDAIDKLDVLPAWQPTAGGAGAGNAAAPPSSSTHPDSAENSDDQAQAITVAHTAFDFAGGGSGGTSFLPPSLDSDAIADTIKSFFPMGGTAGGEASSSTTAAQSSAMGFQSYTPDLLSRTGSQSQELRLSLQSLPDPMFHHQQHRHGGGGGGGNGTTQQALFSGAANYSFGGGAMWATEQQAQNQRMLPWNVPDPGGGGGAAYLFNVSQQAAHMQAAAAALGGHQSQFFFQRGPLQSSNQPSERGWPETVEADNQMSHHQGGLSPSVSAAIGFAAPGIGFSGFRLPARIQGDEEHNGGGGGNGDKPPPPSSVSSASHH
